Test results published in the supplement of paper PMC8728848.
Some of the results follow.

Columns and labels:
Assay in all cases: glycan array binding signal (z-score within array); higher = stronger binding
Conditions in all cases: glycan notation: IUPAC condensed, linker removed
[1] = molecular target: Gal(a1-3)Gal(b1-4)[Fuc(a1-3)]GlcNAc
Procedure, shortened: (§1)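 Glycan array data came from 3228 arrays in the Consortium for Functional Glycomics database, and only arrays with an available protein sequence were kept. Glycan names were put into IUPAC-condensed notation, and columns mapping to the same glycan were averaged. The binding signal is a within-array Z-score, averaged across arrays of one protein sequence run at different concentrations or buffers and across linkers. A negative Z-score can be read as non-binding.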

[2] = molecular target: Gal(a1-3)Gal(b1-4)[Fuc(a1-3)]GlcNAc(b1-2)Man(a1-3)[Gal(a1-3)Gal(b1-4)[Fuc(a1-3)]GlcNAc(b1-2)Man(a1-6)]Man(b1-4)GlcNAc(b1-4)GlcNAc
Procedure, shortened: as §1

Gal(a1-3)GalNAc = molecular target: Gal(a1-3)GalNAc
Procedure, shortened: as §1

[3] = molecular target: Gal(a1-3)[Gal(a1-4)]Gal(b1-4)GlcNAc
Procedure, shortened: as §1

[4] = molecular target: Gal(a1-4)Gal(b1-3)GlcNAc(b1-2)Man(a1-3)[Gal(a1-4)Gal(b1-3)GlcNAc(b1-2)Man(a1-6)]Man(b1-4)GlcNAc(b1-4)GlcNAc
Procedure, shortened: as §1

Gal(a1-4)Gal(b1-4)Glc = molecular target: Gal(a1-4)Gal(b1-4)Glc
Procedure, shortened: as §1

Gal(a1-4)Gal(b1-4)GlcNAc = molecular target: Gal(a1-4)Gal(b1-4)GlcNAc
Procedure, shortened: as §1

[5] = molecular target: Gal(a1-4)Gal(b1-4)GlcNAc(b1-2)Man(a1-3)[Gal(a1-4)Gal(b1-4)GlcNAc(b1-2)Man(a1-6)]Man(b1-4)GlcNAc(b1-4)GlcNAc
Procedure, shortened: as §1

[6] = molecular target: Gal(a1-4)Gal(b1-4)GlcNAc(b1-3)Gal(b1-4)Glc
Procedure, shortened: as §1

Gal(a1-4)GlcNAc = molecular target: Gal(a1-4)GlcNAc
Procedure, shortened: as §1

Gal(a1-6)Glc = molecular target: Gal(a1-6)Glc
Procedure, shortened: as §1

Gal(b1-2)Gal = molecular target: Gal(b1-2)Gal
Procedure, shortened: as §1

Gal(b1-3)Gal = molecular target: Gal(b1-3)Gal
Procedure, shortened: as §1

Gal(b1-3)Gal(b1-4)GlcNAc = molecular target: Gal(b1-3)Gal(b1-4)GlcNAc
Procedure, shortened: as §1

[7] = molecular target: Gal(b1-3)Gal(b1-4)GlcNAc(b1-2)Man(a1-3)[Gal(b1-3)Gal(b1-4)GlcNAc(b1-2)Man(a1-6)]Man(b1-4)GlcNAc(b1-4)GlcNAc
Procedure, shortened: as §1

Gal(b1-3)GalNAc = molecular target: Gal(b1-3)GalNAc
Procedure, shortened: as §1

[8] = molecular target: Gal(b1-3)GalNAc(a1-3)[Fuc(a1-2)]Gal(b1-4)Glc
Procedure, shortened: as §1

[9] = molecular target: Gal(b1-3)GalNAc(a1-3)[Fuc(a1-2)]Gal(b1-4)GlcNAc
Procedure, shortened: as §1

[10] = molecular target: Gal(b1-3)GalNAc(b1-3)Gal(a1-4)Gal(b1-4)Glc
Procedure, shortened: as §1

[11] = molecular target: Gal(b1-3)GalNAc(b1-4)Gal(b1-4)Glc
Procedure, shortened: as §1

[12] = molecular target: Gal(b1-3)GalNAc(b1-4)[Neu5Ac(a2-3)]Gal(b1-4)Glc
Procedure, shortened: as §1

Gal(b1-3)GlcNAc = molecular target: Gal(b1-3)GlcNAc
Procedure, shortened: as §1

[13] = molecular target: Gal(b1-3)GlcNAc(a1-6)Gal(b1-4)GlcNAc
Procedure, shortened: as §1

[14] = molecular target: Gal(b1-3)GlcNAc(b1-2)Man(a1-3)[Gal(b1-3)GlcNAc(b1-2)Man(a1-6)]Man(b1-4)GlcNAc(b1-4)GlcNAc
Procedure, shortened: as §1

[15] = molecular target: Gal(b1-3)GlcNAc(b1-2)Man(a1-3)[Gal(b1-3)GlcNAc(b1-2)Man(a1-6)]Man(b1-4)GlcNAc(b1-4)[Fuc(a1-6)]GlcNAc
Procedure, shortened: as §1

[16] = molecular target: Gal(b1-3)GlcNAc(b1-2)[Gal(b1-3)GlcNAc(b1-6)]Man(a1-6)[Gal(b1-3)GlcNAc(b1-2)Man(a1-3)]Man(b1-4)GlcNAc(b1-4)GlcNAc
Procedure, shortened: as §1

[17] = molecular target: Gal(b1-3)GlcNAc(b1-3)Gal(b1-3)GlcNAc
Procedure, shortened: as §1

[18] = molecular target: Gal(b1-3)GlcNAc(b1-3)Gal(b1-4)Glc
Procedure, shortened: as §1

[19] = molecular target: Gal(b1-3)GlcNAc(b1-3)Gal(b1-4)GlcNAc
Procedure, shortened: as §1

[20] = molecular target: Gal(b1-3)GlcNAc(b1-3)Gal(b1-4)GlcNAc(b1-6)[Gal(b1-3)GlcNAc(b1-3)]Gal(b1-4)Glc
Procedure, shortened: as §1

[21] = molecular target: Gal(b1-3)GlcNAc(b1-3)Gal(b1-4)[Fuc(a1-3)]GlcNAc(b1-6)[Gal(b1-3)GlcNAc(b1-3)]Gal(b1-4)Glc
Procedure, shortened: as §1

[22] = molecular target: Gal(b1-3)GlcNAc(b1-3)GalNAc
Procedure, shortened: as §1

[23] = molecular target: Gal(b1-3)GlcNAc(b1-6)Gal(b1-4)GlcNAc
Procedure, shortened: as §1

[24] = molecular target: Gal(b1-3)[Fuc(a1-4)]GlcNAc
Procedure, shortened: as §1

[25] = molecular target: Gal(b1-3)[Fuc(a1-4)]GlcNAc(b1-2)Man(a1-3)[Gal(b1-3)[Fuc(a1-4)]GlcNAc(b1-2)Man(a1-6)]Man(b1-4)GlcNAc(b1-4)GlcNAc
Procedure, shortened: as §1

[26] = molecular target: Gal(b1-3)[Fuc(a1-4)]GlcNAc(b1-2)Man(a1-3)[Gal(b1-3)[Fuc(a1-4)]GlcNAc(b1-2)Man(a1-6)]Man(b1-4)GlcNAc(b1-4)[Fuc(a1-6)]GlcNAc
Procedure, shortened: as §1

[27] = molecular target: Gal(b1-3)[Fuc(a1-4)]GlcNAc(b1-3)Gal(b1-3)[Fuc(a1-4)]GlcNAc
Procedure, shortened: as §1

[28] = molecular target: Gal(b1-3)[Fuc(a1-4)]GlcNAc(b1-3)Gal(b1-4)GlcNAc
Procedure, shortened: as §1

[29] = molecular target: Gal(b1-3)[Fuc(a1-4)]GlcNAc(b1-3)Gal(b1-4)[Fuc(a1-3)]GlcNAc
Procedure, shortened: as §1

[30] = molecular target: Gal(b1-3)[GlcNAc(b1-6)]GalNAc
Procedure, shortened: as §1

[31] = molecular target: Gal(b1-3)[Neu5Ac(a2-6)]GalNAc
Procedure, shortened: as §1

[32] = molecular target: Gal(b1-3)[Neu5Ac(a2-6)]GlcNAc(b1-6)Gal(b1-4)Glc
Procedure, shortened: as §1

[33] = molecular target: Gal(b1-3)[Neu5Ac(b2-6)]GalNAc
Procedure, shortened: as §1

Gal(b1-4)Gal = molecular target: Gal(b1-4)Gal
Procedure, shortened: as §1

[34] = molecular target: Gal(b1-4)GalNAc(a1-3)[Fuc(a1-2)]Gal(b1-4)GlcNAc
Procedure, shortened: as §1

B1: pullulanase (Streptococcus pyogenes), Q8KLP1 (protein)
chain: MKKKVNQGSKRYQYLLKKWGIGFVIAATGTVMLGCIPSILTHQVAAKTIVGLARDEAQQGDGNAKSGDGFQSSSKEAKPVLDSSSANPASIAEHHLRMHFKTLPAGESLGSLGLWVWGDVDQPSKDWPNGAITMTKAKKDDYGYYLDVPLAAKHRQQVSYLINNKAGENLSKDQHIPLLTPKMNEVWIDENYHAHAYRPLKKGYLRINYHNQSGHYDNLAVWTFKDVKTPTTDWPNGLDLSHKGPYGAYVDVPLKEGANEIGFLILDKSKTGDAIKVQPKDYLFKELDNHTQVFVKDTDPKVYNNPYYIDQVSLKGAEQTTPNEIKAIFTTLDGLDEDAVKQNIKITDKAGKTVAIDELTLDKDKSVMTLKGDFKAQGAVYTVTFGEVSQVARQSWQLKDKLYAYDGELGATLAKDGSVDLALWSPSADSVKVVVYDKQDQTKVVGQADLTKSDKGVWRAHLTSDSVKGISDYTGYYYLYEITRGQEKVMVLDPYAKSLAAWNDATATDDIKTAKAAFIDPSKLGPTGLDFAKINNFKKREDAIIYEAHVRDFTSDKALEGKLTHPFGTFSAFVEQLDYLKDLGVTHVQLLPVLSYFYANELDKTRSTAYTSSDNNYNWGYDPQHYFALSGMYSANPNDPALRIAELKNLVNEIHKRGMGVIFDVVYNHTARTYLFEDLEPNYYHFMNADGTARESFGGGRLGTTHAMSRRILVDSITYLTREFKVDGFRFDMMGDHDAAAIEQAFKAAKAINPNTIMIGEGWRTYQGDEGKKEIAADQDWMKATNTVGVFSDDIRNTLKSGFPNEGTAAFITGGAKNLEGLFKTIKAQPSNFEADAPGDVVQYIAAHDNLTLHDVIAKSINKDPKVAEEEIHKRIRLGNTMILTAQGTAFIHSGQEYGRTKQLLNPDYKTKVSDDKVPNKATLIDAVAQYPYFIHDSYDSSDAVNHFDWAKATDSIAHPISNQTKAYTQGLIALRRSTDAFTKATKAEVDRDVTLITQAGQDGIQQEDLIMGYQTVASNGDRYAVFVNADNKTRKVVLPQAYRYLLGAQVLADAEQVGVTAIAKPKGVQFTKEGLTIDGLTALVLKVSSKTANPSQQKSQTDNHQTKTPDGSKDLDKSLMTRPKRAKTNQKLPKTGEAPSKGLLAAGVALLLLAISLLMKRQKD
Q: What does the source list for B1?
A: glycan array binding signal (z-score) [1]: -0.126; glycan array binding signal (z-score) [2]: -0.917; glycan array binding signal (z-score) (Gal(a1-3)GalNAc): -0.591; glycan array binding signal (z-score) [3]: -0.833; glycan array binding signal (z-score) [4]: 0.108; glycan array binding signal (z-score) (Gal(a1-4)Gal(b1-4)Glc): 1.29; glycan array binding signal (z-score) (Gal(a1-4)Gal(b1-4)GlcNAc): 0.461; glycan array binding signal (z-score) [5]: -0.805; glycan array binding signal (z-score) [6]: 0.422; glycan array binding signal (z-score) (Gal(a1-4)GlcNAc): -0.9; glycan array binding signal (z-score) (Gal(a1-6)Glc): -1.44; glycan array binding signal (z-score) (Gal(b1-2)Gal): -0.194; glycan array binding signal (z-score) (Gal(b1-3)Gal): 0.341; glycan array binding signal (z-score) (Gal(b1-3)Gal(b1-4)GlcNAc): -0.831; glycan array binding signal (z-score) [7]: -0.476; glycan array binding signal (z-score) (Gal(b1-3)GalNAc): 0.229; glycan array binding signal (z-score) [8]: 0.712; glycan array binding signal (z-score) [9]: -1.08; glycan array binding signal (z-score) [10]: -1.06; glycan array binding signal (z-score) [11]: 1.37; glycan array binding signal (z-score) [12]: -0.953; glycan array binding signal (z-score) (Gal(b1-3)GlcNAc): -0.745; glycan array binding signal (z-score) [13]: -1.04; glycan array binding signal (z-score) [14]: 0.125; glycan array binding signal (z-score) [15]: 0.536; glycan array binding signal (z-score) [16]: -0.345; glycan array binding signal (z-score) [17]: 1.49; glycan array binding signal (z-score) [18]: -1.58; glycan array binding signal (z-score) [19]: 2.25; glycan array binding signal (z-score) [20]: 0.184; glycan array binding signal (z-score) [21]: -0.674; glycan array binding signal (z-score) [22]: -0.015; glycan array binding signal (z-score) [23]: 1.28; glycan array binding signal (z-score) [24]: 0.027; glycan array binding signal (z-score) [25]: 6.24; glycan array binding signal (z-score) [26]: 2.86; glycan array binding signal (z-score) [27]: 0.684; glycan array binding signal (z-score) [28]: -0.836; glycan array binding signal (z-score) [29]: -0.858; glycan array binding signal (z-score) [30]: 0.132; glycan array binding signal (z-score) [31]: 0.382; glycan array binding signal (z-score) [32]: -0.813; glycan array binding signal (z-score) [33]: -0.582; glycan array binding signal (z-score) (Gal(b1-4)Gal): -1.71; glycan array binding signal (z-score) [34]: -0.33
